Laboratory results taken from publication PMC6479050.
Results are given in words; binding and its absence hold for the method and conditions named. For some of these results: In cells and extracts the contact can be indirect. Some binding calls cover weakened binding; strength is not graded here.

Amino acid sequences for entries named in this document (tags omitted).
UniProt Q92922: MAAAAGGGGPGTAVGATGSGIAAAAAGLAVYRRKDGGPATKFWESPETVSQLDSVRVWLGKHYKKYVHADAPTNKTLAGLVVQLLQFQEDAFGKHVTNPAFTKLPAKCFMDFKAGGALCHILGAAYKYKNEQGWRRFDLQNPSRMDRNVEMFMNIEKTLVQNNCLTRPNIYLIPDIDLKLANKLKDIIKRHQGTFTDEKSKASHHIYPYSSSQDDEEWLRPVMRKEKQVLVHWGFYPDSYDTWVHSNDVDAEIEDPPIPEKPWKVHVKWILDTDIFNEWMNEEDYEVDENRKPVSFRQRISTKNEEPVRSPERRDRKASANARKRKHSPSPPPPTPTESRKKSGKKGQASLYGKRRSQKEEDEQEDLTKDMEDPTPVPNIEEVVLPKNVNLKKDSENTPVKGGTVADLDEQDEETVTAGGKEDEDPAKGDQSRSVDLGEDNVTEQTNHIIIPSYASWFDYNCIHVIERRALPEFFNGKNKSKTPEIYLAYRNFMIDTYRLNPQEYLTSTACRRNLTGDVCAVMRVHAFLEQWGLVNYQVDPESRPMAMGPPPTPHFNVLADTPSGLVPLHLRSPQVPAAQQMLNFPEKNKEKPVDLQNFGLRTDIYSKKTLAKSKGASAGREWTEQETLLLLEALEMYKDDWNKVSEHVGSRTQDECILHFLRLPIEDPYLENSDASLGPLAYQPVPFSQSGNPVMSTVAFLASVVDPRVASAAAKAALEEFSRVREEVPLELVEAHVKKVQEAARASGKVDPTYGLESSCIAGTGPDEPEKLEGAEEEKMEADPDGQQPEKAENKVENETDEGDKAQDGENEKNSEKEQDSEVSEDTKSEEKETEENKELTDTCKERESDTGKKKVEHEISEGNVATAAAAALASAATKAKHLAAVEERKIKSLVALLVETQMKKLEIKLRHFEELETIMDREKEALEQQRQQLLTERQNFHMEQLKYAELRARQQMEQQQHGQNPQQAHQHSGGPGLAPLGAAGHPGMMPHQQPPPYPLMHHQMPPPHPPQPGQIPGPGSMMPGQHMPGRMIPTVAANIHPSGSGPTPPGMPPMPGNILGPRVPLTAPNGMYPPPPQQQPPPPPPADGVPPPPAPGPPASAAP
UniProt P51532: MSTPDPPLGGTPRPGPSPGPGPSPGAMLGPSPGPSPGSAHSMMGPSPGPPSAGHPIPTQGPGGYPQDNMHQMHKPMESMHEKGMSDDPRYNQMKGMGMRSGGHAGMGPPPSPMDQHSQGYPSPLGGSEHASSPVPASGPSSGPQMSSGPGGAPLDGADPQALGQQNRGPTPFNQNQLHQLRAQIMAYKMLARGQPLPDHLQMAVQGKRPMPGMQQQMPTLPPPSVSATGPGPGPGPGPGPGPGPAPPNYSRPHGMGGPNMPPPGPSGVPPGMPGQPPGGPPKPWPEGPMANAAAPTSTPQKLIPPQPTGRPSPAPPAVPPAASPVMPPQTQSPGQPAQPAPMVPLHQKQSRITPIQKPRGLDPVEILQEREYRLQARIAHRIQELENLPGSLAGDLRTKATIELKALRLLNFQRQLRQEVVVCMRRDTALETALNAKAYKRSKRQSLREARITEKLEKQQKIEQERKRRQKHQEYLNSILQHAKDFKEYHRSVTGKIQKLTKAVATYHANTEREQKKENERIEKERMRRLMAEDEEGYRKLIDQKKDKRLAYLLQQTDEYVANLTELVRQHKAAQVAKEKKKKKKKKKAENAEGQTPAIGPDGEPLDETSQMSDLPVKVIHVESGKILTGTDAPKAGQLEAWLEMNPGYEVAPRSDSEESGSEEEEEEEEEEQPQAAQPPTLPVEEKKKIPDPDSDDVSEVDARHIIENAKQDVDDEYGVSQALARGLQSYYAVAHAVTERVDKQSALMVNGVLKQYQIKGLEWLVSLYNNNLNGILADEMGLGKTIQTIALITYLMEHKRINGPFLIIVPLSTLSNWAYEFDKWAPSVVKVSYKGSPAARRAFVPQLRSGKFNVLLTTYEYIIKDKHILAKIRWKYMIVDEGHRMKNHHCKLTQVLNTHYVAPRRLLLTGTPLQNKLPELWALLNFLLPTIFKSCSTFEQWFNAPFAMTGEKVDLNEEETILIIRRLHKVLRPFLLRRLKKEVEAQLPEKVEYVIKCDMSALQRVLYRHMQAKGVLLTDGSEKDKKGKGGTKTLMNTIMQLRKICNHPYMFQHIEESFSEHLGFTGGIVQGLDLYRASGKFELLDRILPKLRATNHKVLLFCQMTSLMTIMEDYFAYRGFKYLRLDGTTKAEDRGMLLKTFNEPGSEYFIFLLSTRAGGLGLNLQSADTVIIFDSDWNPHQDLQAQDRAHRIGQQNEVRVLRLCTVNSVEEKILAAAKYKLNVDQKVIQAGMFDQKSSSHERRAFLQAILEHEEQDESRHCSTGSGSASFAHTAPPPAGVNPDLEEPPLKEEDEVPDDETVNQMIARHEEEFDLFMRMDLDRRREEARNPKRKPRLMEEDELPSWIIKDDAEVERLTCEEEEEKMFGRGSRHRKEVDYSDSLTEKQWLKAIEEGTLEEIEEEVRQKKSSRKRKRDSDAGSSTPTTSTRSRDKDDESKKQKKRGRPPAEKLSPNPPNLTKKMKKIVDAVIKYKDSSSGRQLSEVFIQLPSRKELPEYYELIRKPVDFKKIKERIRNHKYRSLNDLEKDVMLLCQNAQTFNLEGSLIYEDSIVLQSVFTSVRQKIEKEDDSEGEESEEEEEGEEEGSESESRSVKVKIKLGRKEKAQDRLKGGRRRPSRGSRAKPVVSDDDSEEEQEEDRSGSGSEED
UniProt Q9H8M2: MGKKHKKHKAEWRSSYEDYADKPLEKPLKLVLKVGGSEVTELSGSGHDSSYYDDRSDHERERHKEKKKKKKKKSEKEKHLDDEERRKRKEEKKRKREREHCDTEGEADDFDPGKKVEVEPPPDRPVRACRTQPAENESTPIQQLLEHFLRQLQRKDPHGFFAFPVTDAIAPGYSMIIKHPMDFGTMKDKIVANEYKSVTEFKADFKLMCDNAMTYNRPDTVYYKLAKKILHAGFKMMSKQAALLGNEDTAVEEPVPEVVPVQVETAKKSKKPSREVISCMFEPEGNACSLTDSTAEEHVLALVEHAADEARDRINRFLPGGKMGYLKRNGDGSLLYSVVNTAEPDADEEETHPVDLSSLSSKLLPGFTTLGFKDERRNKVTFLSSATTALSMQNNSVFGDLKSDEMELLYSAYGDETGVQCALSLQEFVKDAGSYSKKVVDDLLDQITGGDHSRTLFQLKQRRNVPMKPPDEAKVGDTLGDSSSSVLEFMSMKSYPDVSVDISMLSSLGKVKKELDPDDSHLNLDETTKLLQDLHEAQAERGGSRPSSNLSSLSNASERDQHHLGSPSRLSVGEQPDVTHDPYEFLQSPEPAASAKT
UniProt O96019: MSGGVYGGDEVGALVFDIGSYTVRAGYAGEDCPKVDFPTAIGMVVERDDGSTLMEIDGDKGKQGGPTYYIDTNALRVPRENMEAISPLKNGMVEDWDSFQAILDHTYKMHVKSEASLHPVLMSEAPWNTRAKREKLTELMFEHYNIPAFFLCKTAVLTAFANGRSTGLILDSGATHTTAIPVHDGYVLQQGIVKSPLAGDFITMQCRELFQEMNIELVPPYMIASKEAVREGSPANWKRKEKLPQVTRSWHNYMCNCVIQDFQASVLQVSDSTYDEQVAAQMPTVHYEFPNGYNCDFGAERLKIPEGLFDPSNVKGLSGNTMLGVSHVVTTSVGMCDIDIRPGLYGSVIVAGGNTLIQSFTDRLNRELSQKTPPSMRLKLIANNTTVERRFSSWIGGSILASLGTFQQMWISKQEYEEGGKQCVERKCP
UniProt Q9NZM4: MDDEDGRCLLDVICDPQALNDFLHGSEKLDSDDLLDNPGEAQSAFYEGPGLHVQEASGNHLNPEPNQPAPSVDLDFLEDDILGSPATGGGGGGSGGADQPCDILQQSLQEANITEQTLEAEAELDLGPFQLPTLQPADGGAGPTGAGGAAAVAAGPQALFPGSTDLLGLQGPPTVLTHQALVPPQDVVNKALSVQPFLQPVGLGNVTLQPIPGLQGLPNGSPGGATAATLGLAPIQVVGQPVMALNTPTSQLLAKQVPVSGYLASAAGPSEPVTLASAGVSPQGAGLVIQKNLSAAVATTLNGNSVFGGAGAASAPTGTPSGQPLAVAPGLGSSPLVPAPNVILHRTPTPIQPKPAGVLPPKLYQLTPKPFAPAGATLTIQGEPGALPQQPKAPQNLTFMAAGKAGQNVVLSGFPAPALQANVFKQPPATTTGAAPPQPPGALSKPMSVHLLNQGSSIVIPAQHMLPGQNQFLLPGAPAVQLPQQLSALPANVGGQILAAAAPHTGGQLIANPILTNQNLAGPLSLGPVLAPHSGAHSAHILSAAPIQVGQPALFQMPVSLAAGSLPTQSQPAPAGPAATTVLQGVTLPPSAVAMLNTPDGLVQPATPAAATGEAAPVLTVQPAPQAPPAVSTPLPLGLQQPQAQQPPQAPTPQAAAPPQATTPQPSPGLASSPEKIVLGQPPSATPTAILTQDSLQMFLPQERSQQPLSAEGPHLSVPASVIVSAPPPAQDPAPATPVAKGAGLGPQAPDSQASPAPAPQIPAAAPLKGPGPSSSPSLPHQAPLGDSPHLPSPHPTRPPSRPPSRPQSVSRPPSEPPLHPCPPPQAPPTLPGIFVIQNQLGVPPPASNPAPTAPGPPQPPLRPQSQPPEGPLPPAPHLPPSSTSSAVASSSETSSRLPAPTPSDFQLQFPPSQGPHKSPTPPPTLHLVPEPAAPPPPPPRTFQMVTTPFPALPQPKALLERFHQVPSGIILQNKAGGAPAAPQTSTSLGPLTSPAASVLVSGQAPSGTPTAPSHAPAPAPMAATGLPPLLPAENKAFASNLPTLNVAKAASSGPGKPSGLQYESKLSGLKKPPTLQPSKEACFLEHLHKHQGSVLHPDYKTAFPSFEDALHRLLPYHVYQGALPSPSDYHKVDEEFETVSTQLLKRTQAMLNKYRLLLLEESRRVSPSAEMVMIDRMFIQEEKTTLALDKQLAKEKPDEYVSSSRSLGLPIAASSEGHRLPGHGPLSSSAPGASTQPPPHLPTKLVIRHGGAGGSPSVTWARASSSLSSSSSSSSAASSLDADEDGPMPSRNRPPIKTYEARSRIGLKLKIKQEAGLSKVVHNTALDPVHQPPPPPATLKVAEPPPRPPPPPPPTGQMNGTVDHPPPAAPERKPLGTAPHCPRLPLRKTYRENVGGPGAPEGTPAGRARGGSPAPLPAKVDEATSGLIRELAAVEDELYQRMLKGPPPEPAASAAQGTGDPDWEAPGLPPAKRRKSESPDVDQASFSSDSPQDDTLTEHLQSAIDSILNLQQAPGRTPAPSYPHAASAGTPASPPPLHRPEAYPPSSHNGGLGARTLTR
UniProt Q12824: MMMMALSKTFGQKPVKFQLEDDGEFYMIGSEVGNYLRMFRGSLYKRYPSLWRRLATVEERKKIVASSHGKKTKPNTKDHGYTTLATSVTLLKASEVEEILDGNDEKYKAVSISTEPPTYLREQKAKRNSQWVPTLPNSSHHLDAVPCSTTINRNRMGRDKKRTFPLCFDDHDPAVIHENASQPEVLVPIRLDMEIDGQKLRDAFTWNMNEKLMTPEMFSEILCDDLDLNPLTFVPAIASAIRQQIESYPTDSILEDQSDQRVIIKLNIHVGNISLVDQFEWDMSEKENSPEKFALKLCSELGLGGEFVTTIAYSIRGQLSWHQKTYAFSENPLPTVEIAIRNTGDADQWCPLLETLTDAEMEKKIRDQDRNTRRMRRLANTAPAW
UniProt Q96GM5: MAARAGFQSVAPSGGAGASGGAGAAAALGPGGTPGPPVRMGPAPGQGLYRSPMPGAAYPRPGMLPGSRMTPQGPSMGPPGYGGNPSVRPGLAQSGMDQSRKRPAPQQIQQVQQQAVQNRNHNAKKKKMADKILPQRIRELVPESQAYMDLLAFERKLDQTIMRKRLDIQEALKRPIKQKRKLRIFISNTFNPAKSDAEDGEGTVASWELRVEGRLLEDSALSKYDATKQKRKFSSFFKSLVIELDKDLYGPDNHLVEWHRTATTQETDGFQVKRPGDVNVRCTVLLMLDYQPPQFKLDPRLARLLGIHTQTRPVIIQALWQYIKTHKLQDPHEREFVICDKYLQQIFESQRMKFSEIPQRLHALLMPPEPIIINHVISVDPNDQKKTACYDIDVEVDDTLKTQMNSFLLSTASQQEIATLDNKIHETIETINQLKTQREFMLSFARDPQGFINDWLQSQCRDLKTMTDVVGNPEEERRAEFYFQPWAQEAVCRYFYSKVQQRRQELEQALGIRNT

Columns and labels:
[1] = target: SMARCC1 (BAF155) (human (endogenous in G401)) (UniProt Q92922); test: co-IP; IP of endogenous BRD9, SMARCC1 or SMARCA4 from nuclear extract (150 mM salt, overnight at 4 °C, Protein G Dynabeads, RIPA washes) and western blot; G401 (without or with BRD9 knockdown, without or with SMARCB1 addback) and H1299 (BRD9 knockdown, SMARCB1 knockdown or both)
[2] = target: SMARCA4 (BRG1) (human (endogenous in G401)) (UniProt P51532); test: as above
[3] = target: Bromodomain-containing protein 9 (BRD9) (human (endogenous in G401)) (UniProt Q9H8M2); test: co-sedimentation; glycerol sedimentation: 1 mg nuclear extract on a 10-35% glycerol gradient, 40,000 r.p.m., 16 h, 4 °C, fractions western blotted; G401 without or with SMARCB1 re-expression, HEK293T parental or SMARCB1 KO, G401 with control or BRD9 CRISPR-Cas9
[4] = target: Bromodomain-containing protein 9 (BRD9) (human (endogenous in G401)) (UniProt Q9H8M2); test: immuno-depletion; immuno-depletion of BRD9 in G401 cells without and with SMARCB1 re-expression

Substance | binding [1] | binding [2] | binding [3] | binding [4]
ACTL6A (BAF53A) (from UniProt O96019 1-429) | binds | – | – | –
Bromodomain-containing protein 9 (BRD9) (from UniProt Q9H8M2 1-597) | binds | binds | – | –
GLTSCR1 (also known as BICRA, BRD4 Interacting Chromatin-Remodeling Complex Associated Protein) (from UniProt Q9NZM4 1-1560) | – | – | binds | –
SMARCA4 (BRG1) (from UniProt P51532 1-1647) | – | – | binds | binds
SMARCB1, endogenous in H1299 (from UniProt Q12824 1-385) | binds | – | – | –
SMARCC1 (BAF155) (from UniProt Q92922 1-1105) | – | – | binds | –
SMARCD1 (BAF60A) (from UniProt Q96GM5 1-515) | binds | – | – | binds
